± gives the standard deviation of the averaged measurements. This is one part of the list.
How the values were obtained:
Test in all cases: NP40-soluble protein abundance relative to vehicle (solubility fold change) (ratio); higher = more soluble protein in presence of GTP
ISOC1 = biological target: T1, ISOC1 (UniProt Q96CN7)
T1 sequence (whole entry): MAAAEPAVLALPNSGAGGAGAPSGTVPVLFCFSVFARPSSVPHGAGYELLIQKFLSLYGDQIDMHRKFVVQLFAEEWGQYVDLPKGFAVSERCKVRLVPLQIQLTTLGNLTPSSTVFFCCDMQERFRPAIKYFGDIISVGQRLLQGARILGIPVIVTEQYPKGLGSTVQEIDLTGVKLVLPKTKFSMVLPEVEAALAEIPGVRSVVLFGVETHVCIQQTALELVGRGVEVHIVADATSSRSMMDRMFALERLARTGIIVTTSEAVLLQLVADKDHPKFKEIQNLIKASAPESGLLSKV
Summary of the method: (§1)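 Values are fold changes against the detergent-processed vehicle, based on vsn-normalised intensities. Jurkat crude lysate was treated at eight concentrations from 0.1 to 10 mM (10 min at room temperature, then 3 min at 37 °C), solubilised with 0.8% NP40 and benzonase, ultracentrifuged and analysed by TMT-labelled LC-MS/MS over three independent experiments.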

NSMCE1 = biological target: T2, NSMCE1 (UniProt Q8WV22)
T2 sequence (whole entry): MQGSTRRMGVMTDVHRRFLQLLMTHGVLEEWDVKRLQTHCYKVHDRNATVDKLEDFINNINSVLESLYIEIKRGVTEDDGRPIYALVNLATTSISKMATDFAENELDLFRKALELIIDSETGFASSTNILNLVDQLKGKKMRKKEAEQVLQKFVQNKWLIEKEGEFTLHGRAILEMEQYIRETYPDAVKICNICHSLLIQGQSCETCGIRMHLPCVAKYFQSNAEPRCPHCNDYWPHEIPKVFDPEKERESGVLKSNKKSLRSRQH
Summary of the method: as §1

PINX1 = biological target: T3, PINX1 (UniProt Q96BK5)
T3 sequence (whole entry): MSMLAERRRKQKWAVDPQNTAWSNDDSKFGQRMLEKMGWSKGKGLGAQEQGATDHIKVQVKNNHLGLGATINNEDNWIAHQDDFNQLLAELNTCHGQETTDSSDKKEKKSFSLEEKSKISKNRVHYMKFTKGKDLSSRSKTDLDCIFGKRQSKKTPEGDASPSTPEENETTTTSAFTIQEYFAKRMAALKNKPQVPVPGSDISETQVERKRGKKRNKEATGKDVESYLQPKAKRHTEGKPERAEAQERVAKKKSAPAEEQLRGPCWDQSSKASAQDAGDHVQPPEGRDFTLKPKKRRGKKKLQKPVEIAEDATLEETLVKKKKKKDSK
Summary of the method: as §1

[1] = biological target: T4, Q96I63 and related entries (UniProt Q96TA2)
T4 sequence (whole entry): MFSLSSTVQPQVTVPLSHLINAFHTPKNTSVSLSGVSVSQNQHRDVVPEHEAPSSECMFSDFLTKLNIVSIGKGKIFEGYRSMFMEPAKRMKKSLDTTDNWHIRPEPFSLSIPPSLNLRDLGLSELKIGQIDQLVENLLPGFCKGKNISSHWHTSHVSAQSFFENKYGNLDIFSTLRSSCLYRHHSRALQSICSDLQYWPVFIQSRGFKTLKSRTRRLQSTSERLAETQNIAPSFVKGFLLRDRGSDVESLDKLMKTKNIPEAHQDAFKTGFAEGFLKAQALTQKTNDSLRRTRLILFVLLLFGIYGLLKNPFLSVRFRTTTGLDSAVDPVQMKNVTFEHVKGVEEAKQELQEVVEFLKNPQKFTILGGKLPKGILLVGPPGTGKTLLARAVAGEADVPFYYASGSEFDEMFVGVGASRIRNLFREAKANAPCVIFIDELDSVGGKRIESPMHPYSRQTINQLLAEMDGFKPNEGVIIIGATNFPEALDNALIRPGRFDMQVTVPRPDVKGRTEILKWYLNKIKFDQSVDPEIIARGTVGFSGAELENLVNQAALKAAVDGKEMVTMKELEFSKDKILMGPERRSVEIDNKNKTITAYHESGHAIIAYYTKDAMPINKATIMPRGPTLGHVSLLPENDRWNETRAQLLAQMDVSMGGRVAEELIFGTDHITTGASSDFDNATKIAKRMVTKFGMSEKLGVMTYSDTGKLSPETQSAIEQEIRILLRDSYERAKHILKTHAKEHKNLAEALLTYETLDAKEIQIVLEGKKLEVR
Summary of the method: as §1

RBM17 = biological target: T5, RBM17 (UniProt Q96I25)
T5 sequence (whole entry): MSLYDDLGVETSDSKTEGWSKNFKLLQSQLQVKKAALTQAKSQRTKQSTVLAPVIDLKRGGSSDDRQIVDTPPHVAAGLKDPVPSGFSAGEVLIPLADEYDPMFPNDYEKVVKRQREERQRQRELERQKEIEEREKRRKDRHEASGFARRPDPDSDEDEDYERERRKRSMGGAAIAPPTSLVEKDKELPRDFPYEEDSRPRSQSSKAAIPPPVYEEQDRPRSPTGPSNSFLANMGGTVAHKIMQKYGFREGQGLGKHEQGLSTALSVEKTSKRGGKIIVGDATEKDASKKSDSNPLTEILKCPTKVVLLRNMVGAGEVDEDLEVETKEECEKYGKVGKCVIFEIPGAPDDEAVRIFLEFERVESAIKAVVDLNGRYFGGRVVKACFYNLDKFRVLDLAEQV
Summary of the method: as §1

RNF25 = biological target: T6, RNF25 (UniProt Q96BH1)
T6 sequence (whole entry): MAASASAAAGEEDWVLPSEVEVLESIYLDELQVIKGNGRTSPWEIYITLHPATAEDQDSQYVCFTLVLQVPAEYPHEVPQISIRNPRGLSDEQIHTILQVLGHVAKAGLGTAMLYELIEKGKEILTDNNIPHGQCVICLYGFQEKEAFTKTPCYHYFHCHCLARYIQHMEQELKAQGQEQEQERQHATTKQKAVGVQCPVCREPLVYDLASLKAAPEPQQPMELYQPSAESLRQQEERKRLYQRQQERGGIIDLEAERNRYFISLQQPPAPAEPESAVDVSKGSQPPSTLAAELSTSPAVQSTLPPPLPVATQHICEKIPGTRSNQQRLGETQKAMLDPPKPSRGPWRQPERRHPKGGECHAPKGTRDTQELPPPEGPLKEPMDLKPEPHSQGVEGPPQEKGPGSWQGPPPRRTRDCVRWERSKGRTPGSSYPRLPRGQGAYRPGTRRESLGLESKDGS
Summary of the method: as §1

Structure (SMILES): Nc1nc2c(ncn2[C@@H]2O[C@H](COP(=O)(O)OP(=O)(O)OP(=O)(O)O)[C@@H](O)[C@H]2O)c(=O)[nH]1 [guanosine triphosphate]
- NP40-soluble protein abundance (ISOC1; concentration: 0.1mM): 1.02 ± 0.12
- NP40-soluble protein abundance (ISOC1; concentration: 0.5mM): 0.985 ± 0.034
- NP40-soluble protein abundance (ISOC1; concentration: 1mM): 0.905 ± 0.058
- NP40-soluble protein abundance (ISOC1; concentration: 2mM): 0.8922 ± 0.0053
- NP40-soluble protein abundance (ISOC1; concentration: 4mM): 0.886 ± 0.039
- NP40-soluble protein abundance (ISOC1; concentration: 6mM): 0.8796 ± 0.0087
- NP40-soluble protein abundance (ISOC1; concentration: 8mM): 0.841 ± 0.089
- NP40-soluble protein abundance (ISOC1; concentration: 10mM): 0.823 ± 0.025
- NP40-soluble protein abundance (NSMCE1; concentration: 0.1mM): 0.998 ± 0.029
- NP40-soluble protein abundance (NSMCE1; concentration: 0.5mM): 0.96 ± 0.048
- NP40-soluble protein abundance (NSMCE1; concentration: 1mM): 1.01 ± 0.039
- NP40-soluble protein abundance (NSMCE1; concentration: 2mM): 0.996 ± 0.04
- NP40-soluble protein abundance (NSMCE1; concentration: 4mM): 1.011 ± 0.0064
- NP40-soluble protein abundance (NSMCE1; concentration: 6mM): 1 ± 0.029
- NP40-soluble protein abundance (NSMCE1; concentration: 8mM): 1 ± 0.029
- NP40-soluble protein abundance (NSMCE1; concentration: 10mM): 0.989 ± 0.025
- NP40-soluble protein abundance (PINX1; concentration: 0.1mM): 1.22 ± 0.065
- NP40-soluble protein abundance (PINX1; concentration: 0.5mM): 1.28 ± 0.074
- NP40-soluble protein abundance (PINX1; concentration: 1mM): 1.45 ± 0.033
- NP40-soluble protein abundance (PINX1; concentration: 2mM): 1.64 ± 0.093
- NP40-soluble protein abundance (PINX1; concentration: 4mM): 1.96 ± 0.15
- NP40-soluble protein abundance (PINX1; concentration: 6mM): 2.01 ± 0.21
- NP40-soluble protein abundance (PINX1; concentration: 8mM): 2.36 ± 0.13
- NP40-soluble protein abundance (PINX1; concentration: 10mM): 2.62 ± 0.26
- NP40-soluble protein abundance ([1]; concentration: 0.1mM): 1 ± 0.026
- NP40-soluble protein abundance ([1]; concentration: 0.5mM): 1.05 ± 0.048
- NP40-soluble protein abundance ([1]; concentration: 1mM): 1.01 ± 0.013
- NP40-soluble protein abundance ([1]; concentration: 2mM): 1.06 ± 0.086
- NP40-soluble protein abundance ([1]; concentration: 4mM): 1.11 ± 0.069
- NP40-soluble protein abundance ([1]; concentration: 6mM): 1.11 ± 0.074
- NP40-soluble protein abundance ([1]; concentration: 8mM): 1.07 ± 0.099
- NP40-soluble protein abundance ([1]; concentration: 10mM): 1.03 ± 0.046
- NP40-soluble protein abundance (RBM17; concentration: 0.1mM): 1.02 ± 0.051
- NP40-soluble protein abundance (RBM17; concentration: 0.5mM): 1.1 ± 0.046
- NP40-soluble protein abundance (RBM17; concentration: 1mM): 1.1 ± 0.066
- NP40-soluble protein abundance (RBM17; concentration: 2mM): 1.16 ± 0.097
- NP40-soluble protein abundance (RBM17; concentration: 4mM): 1.19 ± 0.12
- NP40-soluble protein abundance (RBM17; concentration: 6mM): 1.3 ± 0.14
- NP40-soluble protein abundance (RBM17; concentration: 8mM): 1.31 ± 0.18
- NP40-soluble protein abundance (RBM17; concentration: 10mM): 1.34 ± 0.23
- NP40-soluble protein abundance (RNF25; concentration: 0.1mM): 1.101 ± 0.0024
- NP40-soluble protein abundance (RNF25; concentration: 0.5mM): 1.1 ± 0.085

Reference: the supplement of paper PMC6411743
